Two molecules from article PMC2998434, “Domain Swapping in Allosteric Modulation of DNA Specificity” (PLoS Biology, 2010) can be followed below.

No constants are given. Whether binding was seen depends on the method and setting.

In assay [1] the target is P27W SgrAI (Streptomyces griseus) (UniProt Q9F6L0). In words: native gel or EMSA; 1 µM SgrAI, 1 nM 32P labeled 18-1 or 18-2 DNA, unlabeled PCP DNA 10-1,000 nM; 20 mM Tris-OAc pH 8.0, 50 mM KOAc, 10 mM Ca(OAc)2, 1 mM DTT, 10% glycerol; 4°C; DNA bound dimers (DBD) to high molecular weight species (HMWS); both purified. (In EMSA bound probe runs differently from free probe, usually more slowly.)

Assay [2] addresses P27G SgrAI (Streptomyces griseus) (UniProt Q9F6L0). The description is as above.

B1: P27W SgrAI (enzyme, UniProt Q9F6L0 2-339)
chain: PFTYSIEATRNLATTERCIQDIRNAWVRNRSTQFQLAQQNMLAYTFGEVIPGFASAGINGMNYRDVIGRPVENAVTEGTHFFRDDFRVDSNAKAKVAGDIFEIVSSAVMWNCAARWNSLMVGEGWRSQPRYSRPTLSPSPRRQVAVLNLPRSFDWVSLLVPESQEVIEEFRAGLRKDGLGLPTSTPDLAVVVLPEEFQNDEMWREEIAGLTRPNQILLSGAYQRLQGRVQPGEISLAVAFKRSLRSDRLYQPLYEANVMQLLLEGKLGAPKVEFEVHTLAPEGTNAFVTYEAASLYGLAEGRSAVHRAIRELYVPPTAADLARRFFAFLNERMELVNG
With B1, in assay [1], the binding entry is listed as “no binding (tested: 1 µM enzyme, PCP up to 1,000 nM)”.

B2: P27G SgrAI (enzyme, UniProt Q9F6L0 2-339)
chain: PFTYSIEATRNLATTERCIQDIRNAGVRNRSTQFQLAQQNMLAYTFGEVIPGFASAGINGMNYRDVIGRPVENAVTEGTHFFRDDFRVDSNAKAKVAGDIFEIVSSAVMWNCAARWNSLMVGEGWRSQPRYSRPTLSPSPRRQVAVLNLPRSFDWVSLLVPESQEVIEEFRAGLRKDGLGLPTSTPDLAVVVLPEEFQNDEMWREEIAGLTRPNQILLSGAYQRLQGRVQPGEISLAVAFKRSLRSDRLYQPLYEANVMQLLLEGKLGAPKVEFEVHTLAPEGTNAFVTYEAASLYGLAEGRSAVHRAIRELYVPPTAADLARRFFAFLNERMELVNG
On to B2, for which the binding entry in assay [2] was “no binding (tested: 1 µM enzyme, PCP up to 1,000 nM)”.
